Results deposited as PubChem BioAssay AID602196 (INSERM, 2012)

Assay: 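Modifiers of cisplatin sensitivity in A549 cells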
Cells: human A549 lung cancer cells
Reagents: siRNA pair against human genes
Time to read-out: 48 h transfection before cisplatin; time from cisplatin to read-out not stated
Challenge: cisplatin at a dose killing half of control-siRNA cells; exact dose and duration not given
Measured: 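Shift in cisplatin death relative to control siRNA, from -50 (all cells die) to +50 (no cells die); siRNAs harmful on their own scored 0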
Scale: two-siRNA summed score (-2 to +2): higher = both siRNAs protect from cisplatin killing; -2 means both sensitise; mean protection from cisplatin (shift in death) and protection from cisplatin (shift in death), siRNA C and protection from cisplatin (shift in death), siRNA D: higher = protection from cisplatin killing
Call rule: 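Each siRNA scores 0 if harmful alone by LDH or WST-1, otherwise +1 if it reduces and -1 if it increases cisplatin killing; a gene is active when both siRNAs agree (sum +2 or -2)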
Meaning of the calls: active = both siRNAs shift cisplatin killing the same way; inactive = no consistent shift, or siRNA harmful alone
Here is a random part of about 23,000 reagents. Over the whole deposit, 455 (2%) got an active call. 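Active includes both protection and sensitisation; some change values fall well beyond the stated -50 to +50 range.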 The numbers tell different reagents against one gene apart. Not stated in the record: the amount of reagent.

gene,reagent no.,two-siRNA summed score (-2 to +2),mean protection from cisplatin (shift in death) (%),"protection from cisplatin (shift in death), siRNA C (%)","protection from cisplatin (shift in death), siRNA D (%)",Outcome
CAPSL,1,0,4,-1.3,9.3,inactive
BPIFB2,1,0,21.8,6.1,37.6,inactive
E2F3,1,0,6.3,8.1,4.5,inactive
ZFHX3,1,0,4,4.4,3.7,inactive
ZFHX3,2,0,4.2,-4.1,12.6,inactive
MYBBP1A,1,1,3.9,-3.6,11.5,inactive
CHAD,1,0,3.1,2.3,3.9,inactive
ARFIP2,1,-1,-23.4,-36.1,-10.6,inactive
RBM10,1,0,-3.8,-21.8,14.2,inactive
RNASEL,1,0,9.6,16.6,2.6,inactive
ADAMTS10,1,0,0.4,1.2,-0.3,inactive
ZNF343,1,0,-9.6,-12.8,-6.3,inactive
LOC339022,1,0,1.5,-8.5,11.6,inactive
MGC42630,1,-1,-1.6,-14.3,11,inactive
TRDN,1,0,4.5,-3,11.9,inactive
DUSP10,1,0,1.2,3.8,-1.5,inactive
CITED4,1,0,9.3,-2.7,21.4,inactive
HLA-DMA,1,-1,-7.5,-8.2,-6.7,inactive
CCDC71L,1,0,2.4,2,2.8,inactive
STMN3,1,0,-8.9,-15.6,-2.3,inactive
LOC158957,1,0,9.9,5.3,14.5,inactive
LOC389777,1,0,2.3,0.9,3.7,inactive
LOC388568,1,0,11.4,3.4,19.4,inactive
LOC344787,1,0,0.3,-1.7,2.2,inactive
TRIB1,1,1,4.5,0.6,8.4,inactive
SUMO2,1,0,-2.4,0.5,-5.4,inactive
UBE2J1,1,0,-2,-7,3,inactive
KCNH7,1,0,-17.5,-35.1,0.1,inactive
PLAG1,1,0,2,-5.1,9.2,inactive
LENG8,1,0,-1.8,-3.2,-0.5,inactive
TPP1,1,0,0.1,-4.5,4.8,inactive
ZBTB8A,1,0,-1.2,1.9,-4.2,inactive
TSSK4,1,1,12.4,10.5,14.4,inactive
DEFB121,1,1,18.2,14.5,21.9,inactive
PPBP,1,0,-12.2,-12.7,-11.7,inactive
FAM219A,1,1,7.1,15.5,-1.2,inactive
GZMK,1,-1,-21,-27.3,-14.7,inactive
SMIM11,1,0,3.1,2.7,3.6,inactive
ORAI3,1,0,-7.3,0.1,-14.8,inactive
LOC440081,1,0,14.9,8.5,21.3,inactive
TFDP3,1,0,0,-6.5,6.4,inactive
AKR1C6P,1,0,13.1,7.8,18.5,inactive
H2AC12,1,0,4.2,1.2,7.2,inactive
MYH1,1,1,10.5,-2.7,23.7,inactive
LOC391669,1,0,-2.4,-9.8,5.1,inactive
TOMM20L,1,0,-3.2,5.9,-12.2,inactive
LINC00879,1,0,5.3,11.1,-0.6,inactive
TIMD4,1,-1,2.3,-13,17.6,inactive
LOC400070,1,0,5.8,16.1,-4.4,inactive
LOC390009,1,1,19.1,23.7,14.5,inactive
CPEB1,1,0,-2.4,1.8,-6.6,inactive
NTSR1,1,0,-3,-15,9.1,inactive
UACA,1,0,9.7,12.9,6.5,inactive
LINC02028,1,0,8.9,24.4,-6.6,inactive
EPHB2,1,0,-1.5,-18.7,15.7,inactive
LOC347292,1,1,18.2,16.9,19.5,inactive
LOC343384,1,0,10.9,-4.1,25.8,inactive

An excerpt from the list above:
gene,reagent no.,two-siRNA summed score (-2 to +2),mean protection from cisplatin (shift in death) (%),"protection from cisplatin (shift in death), siRNA C (%)","protection from cisplatin (shift in death), siRNA D (%)",Outcome
DEFB121,1,1,18.2,14.5,21.9,inactive
PPBP,1,0,-12.2,-12.7,-11.7,inactive
FAM219A,1,1,7.1,15.5,-1.2,inactive
